Data: patent US20160244453A1, “TREATMENT OF VIRAL AND INFECTIOUS DISEASES USING AN INHIBITOR OF CBP/CATENIN” (PRISM PHARMA CO., LTD., priority 2013, published 2016)
At least one compound was matched to its structure with a doubt left.

How the values were obtained:
[1] = test system: LC3B; assay: Autophagy induction in macrophages, LC3B immunoblotting; type: cell-based; settings: rapamycin 100 nM, immunoblot
Description: Microtubule-associated protein 1A/1B-light chain 3 (LC3) is a soluble protein that is distributed ubiquitously in mammalian tissues and cultured cells (reviewed in Methods Mol. Biol. 445, 77-88 (2008). During autophagy, autophagosomes engulf cytoplasmic components, including cytosolic proteins and organelles. Concomitantly, a cytosolic form of LC3 (LC3-I) is conjugated to phosphatidylethanolamine to form LC3-phosphatidylethanolamine conjugate (LC3-II), which is recruited to autophagosomal membranes. Autophagosomes fuse with lysosomes to form autolysosomes, and intra-autophagosomal components are degraded by lysosomal hydrolases. At the same time, LC3-II in autolysosomal lumen is degraded. Thus, lysosomal turnover of the autophagosomal marker LC3-II reflects starvation-induced autophagic activity, and detecting LC3 by immunoblotting or immunofluorescence is an indicator of autophagy and autophagy-related processes, including autophagic cell death.
(§1) For these studies, macrophages were exposed to rapamycin 100 nM (a known inducer of autophagic flux), proteins were extracted and subjected to immunoblotting.
During autophagy, LC3B (LC3B-I) forms LC3B-phosphatidylethanolamine conjugate (LC3B-II), which is recruited to autophagosomal membranes. […] Thus, during autophagic flux the relative quantity of LC3B-II is increased compared to LC3B-I.

[2] = test system: Sequestome 1/p62 (SQSTM1); assay: Autophagic flux in macrophages, SQSTM1/p62 immunoblotting; type: cell-based; settings: Compound A 1 and 2 μM, rapamycin 100 nM, immunoblot
Description: as §1
In addition, the inventors looked at another marker of autophagic flux (sequestosome 1, also called SQSTIM1 or p62). During active autophagy, SQSTIM1 is degraded (decreased).

**Q.** Which results are given for CO[C@H]1C[C@@H]2CC[C@@H](C)[C@@](O)(O2)C(=O)C(=O)N2CCCC[C@H]2C(=O)O[C@H]([C@H](C)C[C@@H]2CC[C@@H](O)[C@H](OC)C2)CC(=O)[C@H](C)/C=C(\C)[C@@H](O)[C@@H](OC)C(=O)[C@H](C)C[C@H](C)/C=C/C=C/C=C/1C [rapamycin, reference compound]?
**A.** levels of LC3B II and LC3B I relative to negative control ([1]; Compound A 2 μM): greatly reduced; amount of LC3B II and LC3B I relative to negative control ([1]; Compound A 1 and 2 μM): increased amount of LC3B II and decreased amount of LC3B I; SQSTM1 (p62) levels relative to negative control [2]: reduced
